Measured values from publication PMC4632068.
No constants are given. Whether binding was seen depends on the method and setting. In cells and extracts the contact can be indirect. These calls come from enrichment with a bait or labelling near it, and not all partners need be listed. Sequences can lack the tags named with a protein.

Amino acid sequences for entries named in this document (tags omitted). Residues count along the entry.
UniProt P20447: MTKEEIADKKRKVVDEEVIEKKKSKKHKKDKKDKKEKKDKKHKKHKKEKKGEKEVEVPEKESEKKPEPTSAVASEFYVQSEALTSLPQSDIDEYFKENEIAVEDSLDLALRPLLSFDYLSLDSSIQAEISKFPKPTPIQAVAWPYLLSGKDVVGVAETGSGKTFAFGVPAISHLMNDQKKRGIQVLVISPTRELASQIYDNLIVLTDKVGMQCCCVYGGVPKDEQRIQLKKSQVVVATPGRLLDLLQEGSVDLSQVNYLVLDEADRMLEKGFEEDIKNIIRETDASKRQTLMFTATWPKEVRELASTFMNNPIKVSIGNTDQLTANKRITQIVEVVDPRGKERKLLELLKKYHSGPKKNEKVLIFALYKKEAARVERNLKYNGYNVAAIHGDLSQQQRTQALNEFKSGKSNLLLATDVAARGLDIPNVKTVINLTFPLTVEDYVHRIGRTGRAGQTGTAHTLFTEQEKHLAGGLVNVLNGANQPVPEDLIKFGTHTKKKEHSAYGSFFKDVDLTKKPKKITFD
UniProt P07251, residues 36-545: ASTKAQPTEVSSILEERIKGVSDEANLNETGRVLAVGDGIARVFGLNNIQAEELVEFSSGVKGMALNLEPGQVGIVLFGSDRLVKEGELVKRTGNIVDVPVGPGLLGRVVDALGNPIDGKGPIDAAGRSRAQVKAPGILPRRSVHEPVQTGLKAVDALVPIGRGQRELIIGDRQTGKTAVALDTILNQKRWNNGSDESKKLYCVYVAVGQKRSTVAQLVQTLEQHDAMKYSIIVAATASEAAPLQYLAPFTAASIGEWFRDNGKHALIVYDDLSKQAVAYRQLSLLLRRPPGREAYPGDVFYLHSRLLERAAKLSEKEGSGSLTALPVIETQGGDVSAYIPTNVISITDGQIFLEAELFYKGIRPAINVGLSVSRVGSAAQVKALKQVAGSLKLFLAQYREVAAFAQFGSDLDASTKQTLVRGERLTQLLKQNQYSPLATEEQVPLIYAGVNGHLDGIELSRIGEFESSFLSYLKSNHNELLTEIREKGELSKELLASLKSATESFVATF
UniProt P05453: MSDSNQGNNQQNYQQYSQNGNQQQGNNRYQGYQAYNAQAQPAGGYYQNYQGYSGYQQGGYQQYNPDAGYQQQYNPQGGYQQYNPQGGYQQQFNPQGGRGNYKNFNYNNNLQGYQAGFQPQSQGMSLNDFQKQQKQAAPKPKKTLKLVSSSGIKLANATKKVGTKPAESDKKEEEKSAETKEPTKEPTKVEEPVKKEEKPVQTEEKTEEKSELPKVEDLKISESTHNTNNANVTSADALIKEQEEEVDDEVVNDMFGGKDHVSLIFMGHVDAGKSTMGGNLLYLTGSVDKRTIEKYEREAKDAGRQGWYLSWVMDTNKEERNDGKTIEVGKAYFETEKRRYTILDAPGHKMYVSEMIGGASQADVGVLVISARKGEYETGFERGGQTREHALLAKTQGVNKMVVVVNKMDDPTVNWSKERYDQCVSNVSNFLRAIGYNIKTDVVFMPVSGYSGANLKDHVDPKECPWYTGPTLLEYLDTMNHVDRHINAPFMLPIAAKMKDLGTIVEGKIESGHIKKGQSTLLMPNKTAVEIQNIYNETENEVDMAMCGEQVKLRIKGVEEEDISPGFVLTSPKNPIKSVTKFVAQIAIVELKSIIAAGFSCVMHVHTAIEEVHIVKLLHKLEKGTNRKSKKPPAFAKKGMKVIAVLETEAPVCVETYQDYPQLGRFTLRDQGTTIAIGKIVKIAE
UniProt P31539: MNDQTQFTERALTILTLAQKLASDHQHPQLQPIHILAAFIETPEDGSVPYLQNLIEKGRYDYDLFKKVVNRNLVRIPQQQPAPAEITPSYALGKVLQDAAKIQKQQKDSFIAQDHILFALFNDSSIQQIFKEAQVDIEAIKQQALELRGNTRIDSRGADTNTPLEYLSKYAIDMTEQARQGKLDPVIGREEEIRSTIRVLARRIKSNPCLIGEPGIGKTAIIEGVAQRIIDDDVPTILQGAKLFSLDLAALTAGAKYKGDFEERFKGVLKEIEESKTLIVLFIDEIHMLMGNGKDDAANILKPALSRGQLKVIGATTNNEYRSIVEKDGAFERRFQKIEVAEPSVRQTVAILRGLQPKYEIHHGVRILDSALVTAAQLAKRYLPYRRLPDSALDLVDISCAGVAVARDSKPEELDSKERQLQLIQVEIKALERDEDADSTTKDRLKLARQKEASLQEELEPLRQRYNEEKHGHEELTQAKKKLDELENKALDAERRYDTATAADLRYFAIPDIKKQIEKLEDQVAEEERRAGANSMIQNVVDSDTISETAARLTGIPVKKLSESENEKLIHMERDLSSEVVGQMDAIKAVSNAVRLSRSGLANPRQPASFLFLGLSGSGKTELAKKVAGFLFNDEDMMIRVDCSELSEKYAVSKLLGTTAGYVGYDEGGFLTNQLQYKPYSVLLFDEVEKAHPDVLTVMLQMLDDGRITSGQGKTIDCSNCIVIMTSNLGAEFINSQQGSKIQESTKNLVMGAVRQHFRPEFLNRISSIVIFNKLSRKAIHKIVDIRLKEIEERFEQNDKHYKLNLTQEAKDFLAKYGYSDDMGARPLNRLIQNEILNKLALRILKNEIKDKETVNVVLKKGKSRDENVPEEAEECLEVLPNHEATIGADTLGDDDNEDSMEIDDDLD
UniProt P38249: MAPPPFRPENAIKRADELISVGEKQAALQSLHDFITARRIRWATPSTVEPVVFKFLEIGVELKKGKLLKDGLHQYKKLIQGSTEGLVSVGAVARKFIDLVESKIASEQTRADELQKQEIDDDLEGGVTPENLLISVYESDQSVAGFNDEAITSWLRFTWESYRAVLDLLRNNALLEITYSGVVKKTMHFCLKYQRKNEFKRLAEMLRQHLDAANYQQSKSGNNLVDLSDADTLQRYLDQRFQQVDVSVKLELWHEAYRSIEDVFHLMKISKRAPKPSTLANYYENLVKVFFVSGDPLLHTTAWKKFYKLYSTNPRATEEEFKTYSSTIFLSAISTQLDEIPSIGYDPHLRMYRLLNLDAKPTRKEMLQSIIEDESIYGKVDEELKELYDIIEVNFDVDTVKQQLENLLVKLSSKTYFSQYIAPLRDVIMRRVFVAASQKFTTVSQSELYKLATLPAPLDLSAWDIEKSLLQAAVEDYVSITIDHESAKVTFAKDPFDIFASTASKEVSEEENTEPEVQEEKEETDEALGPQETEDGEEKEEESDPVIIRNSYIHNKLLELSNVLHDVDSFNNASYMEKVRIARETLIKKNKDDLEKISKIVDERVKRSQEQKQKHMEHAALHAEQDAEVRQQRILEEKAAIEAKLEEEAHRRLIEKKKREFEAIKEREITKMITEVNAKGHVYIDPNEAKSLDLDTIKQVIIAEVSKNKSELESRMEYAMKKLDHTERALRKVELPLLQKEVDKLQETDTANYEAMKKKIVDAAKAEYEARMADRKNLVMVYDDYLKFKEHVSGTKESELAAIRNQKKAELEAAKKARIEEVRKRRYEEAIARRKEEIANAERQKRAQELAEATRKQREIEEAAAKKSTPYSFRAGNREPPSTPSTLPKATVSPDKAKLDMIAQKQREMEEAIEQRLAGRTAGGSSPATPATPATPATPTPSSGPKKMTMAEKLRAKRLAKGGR
UniProt P00817: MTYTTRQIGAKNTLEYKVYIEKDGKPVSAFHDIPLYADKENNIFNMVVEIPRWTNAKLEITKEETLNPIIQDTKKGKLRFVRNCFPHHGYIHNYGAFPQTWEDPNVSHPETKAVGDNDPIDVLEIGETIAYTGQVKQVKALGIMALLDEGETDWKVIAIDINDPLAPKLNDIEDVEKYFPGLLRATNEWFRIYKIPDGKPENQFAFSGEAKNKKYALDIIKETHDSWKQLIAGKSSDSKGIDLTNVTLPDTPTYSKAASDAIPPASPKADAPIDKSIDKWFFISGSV
UniProt P04147: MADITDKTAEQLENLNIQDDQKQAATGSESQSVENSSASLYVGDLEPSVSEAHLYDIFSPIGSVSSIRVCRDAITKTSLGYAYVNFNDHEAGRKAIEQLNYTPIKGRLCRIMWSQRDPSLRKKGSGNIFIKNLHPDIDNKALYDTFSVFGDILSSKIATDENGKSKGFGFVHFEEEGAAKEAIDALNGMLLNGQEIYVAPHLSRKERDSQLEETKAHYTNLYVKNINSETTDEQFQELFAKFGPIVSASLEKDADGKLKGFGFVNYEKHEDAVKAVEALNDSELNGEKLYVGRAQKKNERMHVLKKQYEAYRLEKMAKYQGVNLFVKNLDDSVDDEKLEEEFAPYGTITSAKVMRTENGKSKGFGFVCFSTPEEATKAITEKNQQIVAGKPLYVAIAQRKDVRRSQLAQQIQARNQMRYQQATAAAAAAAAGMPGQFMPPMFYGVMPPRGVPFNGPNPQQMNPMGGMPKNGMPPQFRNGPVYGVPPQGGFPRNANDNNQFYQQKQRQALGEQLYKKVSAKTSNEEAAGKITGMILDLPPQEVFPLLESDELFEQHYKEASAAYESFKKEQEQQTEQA
UniProt P26784: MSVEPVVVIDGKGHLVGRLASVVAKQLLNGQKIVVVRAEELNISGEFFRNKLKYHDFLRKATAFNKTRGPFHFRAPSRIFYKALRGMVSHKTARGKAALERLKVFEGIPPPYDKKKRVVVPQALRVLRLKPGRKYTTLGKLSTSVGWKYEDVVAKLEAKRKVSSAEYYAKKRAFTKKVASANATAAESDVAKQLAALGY
UniProt P22147: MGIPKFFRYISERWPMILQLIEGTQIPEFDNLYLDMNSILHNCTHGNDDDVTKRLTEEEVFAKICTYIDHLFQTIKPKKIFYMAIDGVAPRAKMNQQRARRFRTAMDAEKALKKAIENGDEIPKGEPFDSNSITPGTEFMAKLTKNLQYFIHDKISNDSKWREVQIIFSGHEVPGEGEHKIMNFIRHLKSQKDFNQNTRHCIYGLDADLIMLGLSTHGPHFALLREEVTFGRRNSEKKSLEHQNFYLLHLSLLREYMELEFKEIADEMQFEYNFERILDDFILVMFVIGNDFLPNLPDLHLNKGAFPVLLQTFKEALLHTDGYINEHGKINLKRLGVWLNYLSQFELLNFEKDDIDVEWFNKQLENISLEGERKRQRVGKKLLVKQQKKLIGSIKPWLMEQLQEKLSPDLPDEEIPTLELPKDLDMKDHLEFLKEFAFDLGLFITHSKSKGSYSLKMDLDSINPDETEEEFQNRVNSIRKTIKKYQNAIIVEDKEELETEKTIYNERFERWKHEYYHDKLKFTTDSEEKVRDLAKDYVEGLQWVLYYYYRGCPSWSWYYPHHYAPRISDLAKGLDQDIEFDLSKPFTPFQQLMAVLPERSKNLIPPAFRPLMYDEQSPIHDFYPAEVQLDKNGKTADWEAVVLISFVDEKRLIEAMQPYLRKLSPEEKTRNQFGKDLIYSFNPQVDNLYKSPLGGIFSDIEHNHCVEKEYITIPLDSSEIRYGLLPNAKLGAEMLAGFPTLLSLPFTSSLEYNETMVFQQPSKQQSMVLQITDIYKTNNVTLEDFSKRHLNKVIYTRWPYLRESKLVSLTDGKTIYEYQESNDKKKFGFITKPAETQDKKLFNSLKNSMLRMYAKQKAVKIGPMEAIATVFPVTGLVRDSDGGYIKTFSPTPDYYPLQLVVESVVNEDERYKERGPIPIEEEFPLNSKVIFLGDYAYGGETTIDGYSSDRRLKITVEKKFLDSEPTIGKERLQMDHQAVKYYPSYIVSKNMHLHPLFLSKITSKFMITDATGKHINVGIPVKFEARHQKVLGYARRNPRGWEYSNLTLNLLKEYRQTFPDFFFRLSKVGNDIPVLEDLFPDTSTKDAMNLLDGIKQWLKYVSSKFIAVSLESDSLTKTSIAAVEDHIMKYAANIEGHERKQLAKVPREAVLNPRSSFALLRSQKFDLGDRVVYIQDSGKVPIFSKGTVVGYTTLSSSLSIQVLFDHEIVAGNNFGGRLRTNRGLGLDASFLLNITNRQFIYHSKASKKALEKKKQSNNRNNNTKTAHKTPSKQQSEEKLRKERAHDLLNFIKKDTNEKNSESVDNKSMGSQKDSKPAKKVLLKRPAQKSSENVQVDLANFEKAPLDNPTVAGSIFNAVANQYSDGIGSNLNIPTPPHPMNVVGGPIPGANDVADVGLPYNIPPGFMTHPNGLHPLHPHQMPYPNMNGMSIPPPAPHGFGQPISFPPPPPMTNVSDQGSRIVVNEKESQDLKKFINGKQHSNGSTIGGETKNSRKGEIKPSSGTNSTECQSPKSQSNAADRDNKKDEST

B1: Lsm1 (protein, UniProt P47017 1-172)
chain: MSANSKDRNQSNQDAKRQQQNFPKKISEGEADLYLDQYNFTTTAAIVSSVDRKIFVLLRDGRMLFGVLRTFDQYANLILQDCVERIYFSEENKYAEEDRGIFMIRGENVVMLGEVDIDKEDQPLEAMERIPFKEAWLTKQKNDEKRFKEETHKGKKMARHGIVYDFHKSDMY
B2: Lsm2 (protein, UniProt P38203 1-95)
chain: MLFFSFFKTLVDQEVVVELKNDIEIKGTLQSVDQFLNLKLDNISCTDEKKYPHLGSVRNIFIRGSTVRYVYLNKNMVDTNLLQDATRREVMTERK
B3: Lsm3 (protein, UniProt P57743 1-89)
chain: METPLDLLKLNLDERVYIKLRGARTLVGTLQAFDSHCNIVLSDAVETIYQLNNEELSESERRCEMVFIRGDTVTLISTPSEDDDGAVEI
B4: Lsm4 (protein, UniProt P40070 1-187)
chain: MLPLYLLTNAKGQQMQIELKNGEIIQGILTNVDNWMNLTLSNVTEYSEESAINSEDNAESSKAVKLNEIYIRGTFIKFIKLQDNIIDKVKQQINSNNNSNSNGPGHKRYYNNRDSNNNRGNYNRRNNNNGNSNRRPYSQNRQYNNSNSSNINNSINSINSNNQNMNNGLGGSVQHHFNSSSPQKVEF
B5: Lsm5 (protein, UniProt P40089 1-93)
chain: MSLPEILPLEVIDKTINQKVLIVLQSNREFEGTLVGFDDFVNVILEDAVEWLIDPEDESRNEKVMQHHGRMLLSGNNIAILVPGGKKTPTEAL
B6: Lsm6 (protein, UniProt Q06406 1-86)
chain: MSGKASTEGSVTTEFLSDIIGKTVNVKLASGLLYSGRLESIDGFMNVALSSATEHYESNNNKLLNKFNSDVFLRGTQVMYISEQKI
B7: Lsm7 (protein, UniProt P53905 1-115)
chain: MHQQHSKSENKPQQQRKKFEGPKREAILDLAKYKDSKIRVKLMGGKLVIGVLKGYDQLMNLVLDDTVEYMSNPDDENNTELISKNARKLGLTVIRGTILVSLSSAEGSDVLYMQK
B8: Pat1 (protein, UniProt P25644 1-796)
chain: MSFFGLENSGNARDGPLDFEESYKGYGEHELEENDYLNDETFGDNVQVGTDFDFGNPHSSGSSGNAIGGNGVGATARSYVAATAEGISGPRTDGTAAAGPLDLKPMESLWSTAPPPAMAPSPQSTMAPAPAPQQMAPLQPILSMQDLERQQRQMQQQFMNFHAMGHPQGLPQGPPQQQFPMQPASGQPGPSQFAPPPPPPGVNVNMNQMPMGPVQVPVQASPSPIGMSNTPSPGPVVGATKMPLQSGRRSKRDLSPEEQRRLQIRHAKVEKILKYSGLMTPRDKDFITRYQLSQIVTEDPYNEDFYFQVYKIIQRGGITSESNKGLIARAYLEHSGHRLGGRYKRTDIALQRMQSQVEKAVTVAKERPSKLKDQQAAAGNSSQDNKQANTVLGKISSTLNSKNPRRQLQIPRQQPSDPDALKDVTDSLTNVDLASSGSSSTGSSAAAVASKQRRRSSYAFNNGNGATNLNKSGGKKFILELIETVYEEILDLEANLRNGQQTDSTAMWEALHIDDSSYDVNPFISMLSFDKGIKIMPRIFNFLDKQQKLKILQKIFNELSHLQIIILSSYKTTPKPTLTQLKKVDLFQMIILKIIVSFLSNNSNFIEIMGLLLQLIRNNNVSFLTTSKIGLNLITILISRAALIKQDSSRSNILSSPEISTWNEIYDKLFTSLESKIQLIFPPREYNDHIMRLQNDKFMDEAYIWQFLASLALSGKLNHQRIIIDEVRDEIFATINEAETLQKKEKELSVLPQRSQELDTELKSIIYNKEKLYQDLNLFLNVMGLVYRDGEISELK
B9: Edc3 (protein, UniProt P39998 1-551)
chain: MSQFVGFGVQVELKDGKLIQGKIAKATSKGLTLNDVQFGDGGKSQAFKVRASRLKDLKVLTVASQSGKRKQQRQQQQQNDYNQNRGEHIDWQDDDVSKIKQQEDFDFQRNLGMFNKKDVFAQLKQNDDILPENRLQGHNRKQTQLQQNNYQNDELVIPDAKKDSWNKISSRNEQSTHQSQPQQDAQDDLVLEDDEHEYDVDDIDDPKYLPITQSLNITHLIHSATNSPSINDKTKGTVINDKDQVLAKLGQMIISQSRSNSTSLPAANKQTTIRSKNTKQNIPMATPVQLLEMESITSEFFSINSAGLLENFAVNASFFLKQKLGGRARLRLQNSNPEPLVVILASDSNRSGAKALALGRHLCQTGHIRVITLFTCSQNELQDSMVKKQTDIYKKCGGKIVNSVSSLESAMETLNSPVEIVIDAMQGYDCTLSDLAGTSEVIESRIKSMISWCNKQRGSTKVWSLDIPNGFDAGSGMPDIFFSDRIEATGIICSGWPLIAINNLIANLPSLEDAVLIDIGIPQGAYSQRTSLRKFQNCDLFVTDGSLLLDL
B10: Tif2 (protein, UniProt P10081 1-395)
chain: MSEGITDIEESQIQTNYDKVVYKFDDMELDENLLRGVFGYGFEEPSAIQQRAIMPIIEGHDVLAQAQSGTGKTGTFSIAALQRIDTSVKAPQALMLAPTRELALQIQKVVMALAFHMDIKVHACIGGTSFVEDAEGLRDAQIVVGTPGRVFDNIQRRRFRTDKIKMFILDEADEMLSSGFKEQIYQIFTLLPPTTQVVLLSATMPNDVLEVTTKFMRNPVRILVKKDELTLEGIKQFYVNVEEEEYKYECLTDLYDSISVTQAVIFCNTRRKVEELTTKLRNDKFTVSAIYSDLPQQERDTIMKEFRSGSSRILISTDLLARGIDVQQVSLVINYDLPANKENYIHRIGRGGRFGRKGVAINFVTNEDVGAMRELEKFYSTQIEELPSDIATLLN
B11: Edc1 (protein, UniProt P53080 1-175)
chain: MSTDTMYFNSSRLLPSAGRNKTNNLIKQKTRNNRARGNAAKNANNNNYITDIPPPQTLPNGQKPNFGHSSNKKPSFNQKKHSPPSSPSSTTTLGKKNRQNNKETPRQNNKDDTRLLSQNLKNLLLNQKQSPHGSQGIIPMGCNGSAKKLSHSYAGSTFATNGPREAKNLPKPSFL
B12: Fun12 (protein, UniProt P39730 1-1002)
chain: MAKKSKKNQQNYWDEEFEEDAAQNEEISATPTPNPESSAGADDTSREASASAEGAEAIEGDFMSTLKQSKKKQEKKVIEEKKDGKPILKSKKEKEKEKKEKEKQKKKEQAARKKAQQQAQKEKNKELNKQNVEKAAAEKAAAEKSQKSKGESDKPSASAKKPAKKVPAGLAALRRQLELKKQLEEQEKLEREEEERLEKEEEERLANEEKMKEEAKAAKKEKEKAKREKRKAEGKLLTRKQKEEKKLLERRRAALLSSGNVKVAGLAKKDGEENKPKKVVYSKKKKRTTQENASEAIKSDSKKDSEVVPDDELKESEDVLIDDWENLALGDDDEEGTNEETQESTASHENEDQNQGEEEEEGEEEEEEEEERAHVHEVAKSTPAATPAATPTPSSASPNKKDLRSPICCILGHVDTGKTKLLDKIRQTNVQGGEAGGITQQIGATYFPIDAIKAKTKVMAEYEKQTFDVPGLLVIDTPGHESFSNLRSRGSSLCNIAILVIDIMHGLEQQTIESIKLLRDRKAPFVVALNKIDRLYDWKAIPNNSFRDSFAKQSRAVQEEFQSRYSKIQLELAEQGLNSELYFQNKNMSKYVSIVPTSAVTGEGVPDLLWLLLELTQKRMSKQLMYLSHVEATILEVKVVEGFGTTIDVILSNGYLREGDRIVLCGMNGPIVTNIRALLTPQPLRELRLKSEYVHHKEVKAALGVKIAANDLEKAVSGSRLLVVGPEDDEDELMDDVMDDLTGLLDSVDTTGKGVVVQASTLGSLEALLDFLKDMKIPVMSIGLGPVYKRDVMKASTMLEKAPEYAVMLCFDVKVDKEAEQYAEQEGIKIFNADVIYHLFDSFTAYQEKLLEERRKDFLDYAIFPCVLQTLQIINKRGPMIIGVDVLEGTLRVGTPICAVKTDPTTKERQTLILGKVISLEINHQPVQEVKKGQTAAGVAVRLEDPSGQQPIWGRHVDENDTLYSLVSRRSIDTLKDKAFRDQVARSDWLLLKKLKVVFGIE
B13: Hrr25 (protein, UniProt P29295 1-494)
chain: MDLRVGRKFRIGRKIGSGSFGDIYHGTNLISGEEVAIKLESIRSRHPQLDYESRVYRYLSGGVGIPFIRWFGREGEYNAMVIDLLGPSLEDLFNYCHRRFSFKTVIMLALQMFCRIQYIHGRSFIHRDIKPDNFLMGVGRRGSTVHVIDFGLSKKYRDFNTHRHIPYRENKSLTGTARYASVNTHLGIEQSRRDDLESLGYVLIYFCKGSLPWQGLKATTKKQKYDRIMEKKLNVSVETLCSGLPLEFQEYMAYCKNLKFDEKPDYLFLARLFKDLSIKLEYHNDHLFDWTMLRYTKAMVEKQRDLLIEKGDLNANSNAASASNSTDNKSETFNKIKLLAMKKFPTHFHYYKNEDKHNPSPEEIKQQTILNNNAASSLPEELLNALDKGMENLRQQQPQQQVQSSQPQPQPQQLQQQPNGQRPNYYPEPLLQQQQRDSQEQQQQVPMATTRATQYPPQINSNNFNTNQASVPPQMRSNPQQPPQDKPAGQSIWL

These molecules were tested against T1, Dhh1−GFP (S. cerevisiae (endogenous in BY4741-derived yeast)) (UniProt P39517) (assay: affinity purification with mass spectrometry; Dhh1−GFP captured by anti-GFP IgG cross-linked to Protein-G Dynabeads from cleared lysate of cryo-ground yeast; RB buffer (30 mM K-Hepes pH 7.4, 150 mM KCl, 2 mM MgCl2, 0.2% NP-40, 0.1% Tween-20, 1 mM DTT, RNase inhibitor), 30 min at 4°; five purifications (two +glucose YPD, three 30 min −glucose YEP); hits filtered by SAINT against CRAPome controls).
T1 sequence: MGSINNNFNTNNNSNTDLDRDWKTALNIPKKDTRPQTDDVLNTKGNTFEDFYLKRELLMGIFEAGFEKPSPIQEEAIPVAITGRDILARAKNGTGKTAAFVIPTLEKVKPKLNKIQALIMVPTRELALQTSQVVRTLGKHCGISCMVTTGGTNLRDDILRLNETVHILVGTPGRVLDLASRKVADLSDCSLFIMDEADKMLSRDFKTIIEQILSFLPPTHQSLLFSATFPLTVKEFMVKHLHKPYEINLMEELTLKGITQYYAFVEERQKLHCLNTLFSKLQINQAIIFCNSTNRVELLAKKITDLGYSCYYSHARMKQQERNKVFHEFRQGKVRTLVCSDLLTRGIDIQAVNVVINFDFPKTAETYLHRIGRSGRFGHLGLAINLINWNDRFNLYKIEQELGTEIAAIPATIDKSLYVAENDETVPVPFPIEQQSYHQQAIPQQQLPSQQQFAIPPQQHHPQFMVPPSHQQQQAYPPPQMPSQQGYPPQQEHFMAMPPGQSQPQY
With Dbp3 (from UniProt P20447 1-523) the binding was “binds”. Atp1 (from UniProt P07251 36-545) was tested, and the binding was “binds”. With Sup35 (from UniProt P05453 1-685) the binding was “binds”. For Hsp104 (from UniProt P31539 1-908), the binding was “binds”. In the case of Rpg1 (from UniProt P38249 1-964), the binding is reported as “binds”. With Ipp1 (from UniProt P00817 1-287) the binding was “binds”. Pab1 (from UniProt P04147 1-577) was tested, and the binding was “binds”. Prt1 (from UniProt P06103 1-763) was tested, and the binding was “binds”. In the case of Krs1 (from UniProt P15180 1-591), the binding is reported as “binds”. Cdc48 (from UniProt P25694 1-835) was tested, and the binding was “binds”. For Vma2 (from UniProt P16140 1-517), the binding was “binds”. Rpl16A (from UniProt P26784 1-199) was tested, and the binding was “binds”. In the case of Pbp1 (from UniProt P53297 1-722), the binding is reported as “binds”. For Ura2 (from UniProt P07259 1-2214), the binding was “binds”. With Xrn1 (from UniProt P22147 1-1528) the binding was “binds”. For B1, the binding was “binds”. In the case of B2, the binding is reported as “binds”. B3 was tested, and the binding was “binds”. For B4, the binding was “binds”. B5 was tested, and the binding was “binds”. In the case of B6, the binding is reported as “binds”. B7 was tested, and the binding was “binds”. In the case of B8, the binding is reported as “binds”. In the case of B9, the binding is reported as “binds”. In the case of B10, the binding is reported as “binds”. In the case of B11, the binding is reported as “binds”. With B12 the binding was “binds”. For B13, the binding was “binds”.
